Article PMC3871820
No constants are given. Whether binding was seen depends on the method and setting.

The chains behind the UniProt entries cited, without tags or fusion partners.
UniProt Q9FMX2: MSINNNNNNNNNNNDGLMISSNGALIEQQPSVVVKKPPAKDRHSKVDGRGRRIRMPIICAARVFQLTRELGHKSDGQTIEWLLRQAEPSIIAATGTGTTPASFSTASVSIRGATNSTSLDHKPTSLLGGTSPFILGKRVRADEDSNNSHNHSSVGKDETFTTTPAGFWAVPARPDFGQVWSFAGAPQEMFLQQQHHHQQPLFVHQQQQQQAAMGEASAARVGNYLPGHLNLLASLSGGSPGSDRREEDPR
UniProt Q9FTA2: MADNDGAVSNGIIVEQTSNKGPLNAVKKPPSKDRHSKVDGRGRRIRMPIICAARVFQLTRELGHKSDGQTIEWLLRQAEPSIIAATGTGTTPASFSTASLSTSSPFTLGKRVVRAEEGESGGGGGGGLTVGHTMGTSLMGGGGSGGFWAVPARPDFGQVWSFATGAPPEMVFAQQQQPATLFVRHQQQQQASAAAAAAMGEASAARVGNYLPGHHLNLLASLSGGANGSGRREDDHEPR
UniProt O64647: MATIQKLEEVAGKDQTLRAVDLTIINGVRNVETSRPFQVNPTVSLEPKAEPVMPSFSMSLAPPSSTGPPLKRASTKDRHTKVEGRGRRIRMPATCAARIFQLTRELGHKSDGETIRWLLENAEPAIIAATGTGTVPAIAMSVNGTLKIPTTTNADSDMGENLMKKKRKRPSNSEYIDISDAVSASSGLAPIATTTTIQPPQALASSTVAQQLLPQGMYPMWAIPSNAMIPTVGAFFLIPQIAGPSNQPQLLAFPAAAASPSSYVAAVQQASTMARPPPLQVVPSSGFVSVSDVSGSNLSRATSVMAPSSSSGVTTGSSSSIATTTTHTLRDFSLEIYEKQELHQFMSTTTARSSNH

What was measured:
Test in all cases: two-hybrid; matrix-based GAL4 yeast two-hybrid by mating (baits in PJ69-4alpha, preys in PJ69-4a); selection on SD-Leu-Trp-Ade or SD-Leu-Trp-His with 5 and 10 mM 3-amino-1,2,4-triazole; scored after 5 days at 30 °C; BD baits of TCP1, 2, 4, 10, 12, 18, 20 and 24 excluded for auto-activation; positive only if reproducible with at least two selection markers
[1] = molecular target: T1, TCP13 (Arabidopsis thaliana) (UniProt Q9S7W5)
T1 sequence: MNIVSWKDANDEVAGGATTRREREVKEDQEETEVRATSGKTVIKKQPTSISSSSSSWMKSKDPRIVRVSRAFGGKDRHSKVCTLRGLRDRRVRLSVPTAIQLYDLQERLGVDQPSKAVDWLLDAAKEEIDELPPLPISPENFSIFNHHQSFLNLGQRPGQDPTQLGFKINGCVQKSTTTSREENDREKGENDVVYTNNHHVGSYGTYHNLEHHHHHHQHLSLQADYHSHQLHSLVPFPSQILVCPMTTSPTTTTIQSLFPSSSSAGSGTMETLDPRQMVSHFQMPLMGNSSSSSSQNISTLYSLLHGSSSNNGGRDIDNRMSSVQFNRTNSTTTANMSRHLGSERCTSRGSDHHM

[2] = molecular target: T2, TCP16 (Arabidopsis thaliana) (UniProt Q9M1U4)
T2 sequence: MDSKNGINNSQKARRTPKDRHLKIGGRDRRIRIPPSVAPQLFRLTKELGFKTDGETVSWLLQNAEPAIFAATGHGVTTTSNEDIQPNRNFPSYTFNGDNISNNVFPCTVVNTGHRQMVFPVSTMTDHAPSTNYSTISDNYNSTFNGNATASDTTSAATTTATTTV

[3] = molecular target: T3, TCP5 (Arabidopsis thaliana) (UniProt Q9FME3)
T3 sequence: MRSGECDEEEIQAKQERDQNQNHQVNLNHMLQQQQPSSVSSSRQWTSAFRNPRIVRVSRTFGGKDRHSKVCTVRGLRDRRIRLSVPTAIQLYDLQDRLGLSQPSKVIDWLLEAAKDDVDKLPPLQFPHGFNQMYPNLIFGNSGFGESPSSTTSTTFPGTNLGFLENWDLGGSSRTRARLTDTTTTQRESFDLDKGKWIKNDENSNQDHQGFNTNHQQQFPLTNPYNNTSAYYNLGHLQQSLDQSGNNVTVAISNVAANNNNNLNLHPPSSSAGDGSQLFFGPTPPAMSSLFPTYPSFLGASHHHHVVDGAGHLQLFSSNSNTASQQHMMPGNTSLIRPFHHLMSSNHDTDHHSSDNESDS

[4] = molecular target: T4, TCP3 (Arabidopsis thaliana) (UniProt Q9MAH8)
T4 sequence: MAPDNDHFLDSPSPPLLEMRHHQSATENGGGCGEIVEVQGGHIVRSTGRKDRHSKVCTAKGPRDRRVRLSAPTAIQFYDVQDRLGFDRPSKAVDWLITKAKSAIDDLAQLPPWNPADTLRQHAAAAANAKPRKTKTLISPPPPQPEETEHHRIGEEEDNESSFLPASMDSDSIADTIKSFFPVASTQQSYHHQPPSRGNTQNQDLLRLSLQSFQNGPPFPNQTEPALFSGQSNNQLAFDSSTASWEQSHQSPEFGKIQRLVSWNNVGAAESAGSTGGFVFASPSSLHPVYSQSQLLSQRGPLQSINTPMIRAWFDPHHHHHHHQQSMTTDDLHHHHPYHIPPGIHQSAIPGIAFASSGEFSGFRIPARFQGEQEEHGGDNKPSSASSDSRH

[5] = molecular target: TCP7 (Arabidopsis thaliana) (UniProt Q9FMX2)
[6] = molecular target: TCP21 (Arabidopsis thaliana) (UniProt Q9FTA2)
[7] = molecular target: TCP15 (Arabidopsis thaliana) (UniProt Q9C9L2)
[8] = molecular target: TCP9 (Arabidopsis thaliana) (UniProt O64647)

- binding [1]: no binding
- binding [2]: no binding
- binding [3]: no binding
- binding [4]: no binding
- binding [5]: no binding
- binding [6]: no binding
- binding [7]: no binding
- binding [8]: no binding
Substance: TCP9 (from UniProt O64647 1-356)
